These are yes or no findings as the source states them, for the method shown. In cells and extracts the contact can be indirect. Some entries that bind do so weakly or less than the wild type.
Legend:
[1] = molecular target: Urokinase-type plasminogen activator receptor (PLAUR) (human (endogenous in HeLa)) (UniProt Q03405); assay: proximity ligation; Duolink in situ proximity ligation assay on fixed HeLa cells, untreated or irradiated at 9 Gy and fixed at the indicated time points; signals per cell counted with ImageJ
[2] = molecular target: Urokinase-type plasminogen activator receptor (PLAUR) (human (endogenous in HeLa)) (UniProt Q03405); assay: co-IP; HeLa cell lysates, untreated or after induction of DNA damage (Dox); lysis in 20 mM Tris pH 7.4, 150 mM NaCl, 10 mM MgCl2, 2 mM EDTA, 10% glycerol, 1% Triton X-100; 1000 ug lysate with 4 ug PLAUR (C-16) or TLR4 (H-80) antibody and Protein A/G PLUS agarose; western blotting; PLAUR/TLR4 also repeated in the reverse direction

Amino acid sequences for entries named in this document (tags omitted). Residues count along the entry.
UniProt Q03405, residues 23-305: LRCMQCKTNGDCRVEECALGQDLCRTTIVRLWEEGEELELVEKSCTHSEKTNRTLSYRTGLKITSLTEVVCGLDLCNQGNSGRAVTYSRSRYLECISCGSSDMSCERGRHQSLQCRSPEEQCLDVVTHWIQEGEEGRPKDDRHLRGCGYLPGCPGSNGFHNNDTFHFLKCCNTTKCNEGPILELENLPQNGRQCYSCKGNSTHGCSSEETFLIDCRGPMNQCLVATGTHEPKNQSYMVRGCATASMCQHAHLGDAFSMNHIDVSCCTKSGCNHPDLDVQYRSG
UniProt O00206, residues 24-839: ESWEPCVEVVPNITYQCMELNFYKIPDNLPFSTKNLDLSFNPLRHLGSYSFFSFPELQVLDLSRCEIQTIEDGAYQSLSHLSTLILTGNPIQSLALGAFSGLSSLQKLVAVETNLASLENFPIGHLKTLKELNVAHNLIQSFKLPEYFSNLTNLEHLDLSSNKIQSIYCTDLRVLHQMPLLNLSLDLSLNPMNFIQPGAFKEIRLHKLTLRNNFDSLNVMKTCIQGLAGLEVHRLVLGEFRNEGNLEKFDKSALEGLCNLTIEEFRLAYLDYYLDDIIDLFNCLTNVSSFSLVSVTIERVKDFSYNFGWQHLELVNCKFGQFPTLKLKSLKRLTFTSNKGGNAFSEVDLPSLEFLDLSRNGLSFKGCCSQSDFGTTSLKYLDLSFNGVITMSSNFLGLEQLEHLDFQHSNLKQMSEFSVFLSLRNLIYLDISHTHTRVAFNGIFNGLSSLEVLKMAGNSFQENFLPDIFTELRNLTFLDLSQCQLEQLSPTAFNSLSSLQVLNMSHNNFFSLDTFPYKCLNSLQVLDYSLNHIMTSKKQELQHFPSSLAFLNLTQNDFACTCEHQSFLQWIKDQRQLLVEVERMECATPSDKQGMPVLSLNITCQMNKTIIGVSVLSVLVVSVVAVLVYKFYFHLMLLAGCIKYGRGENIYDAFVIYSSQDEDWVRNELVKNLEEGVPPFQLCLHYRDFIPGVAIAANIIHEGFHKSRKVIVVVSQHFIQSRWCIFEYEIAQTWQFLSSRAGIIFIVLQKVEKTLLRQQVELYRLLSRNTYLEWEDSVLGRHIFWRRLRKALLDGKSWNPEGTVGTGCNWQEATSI

| binding [1] | Molecule | binding [2] |
| --- | --- | --- |
| binds | toll-like receptor 4 (TLR4) (from UniProt O00206 24-839) | binds |
|  | TLR1 (receptor, UniProt Q15399 25-786) SEFLVDRSKNGLIHVPKDLSQKTTILNISQNYISELWTSDILSLSKLRILIISHNRIQYLDISVFKFNQELEYLDLSHNKLVKISCHPTVNLKHLDLSFNAFDALPICKEFGNMSQLKFLGLSTTHLEKSSVLPIAHLNISKVLLVLGETYGEKEDPEGLQDFNTESLHIVFPTNKEFHFILDVSVKTVANLELSNIKCVLEDNKCSYFLSILAKLQTNPKLSNLTLNNIETTWNSFIRILQLVWHTTVWYFSISNVKLQGQLDFRDFDYSGTSLKALSIHQVVSDVFGFPQSYIYEIFSNMNIKNFTVSGTRMVHMLCPSKISPFLHLDFSNNLLTDTVFENCGHLTELETLILQMNQLKELSKIAEMTTQMKSLQQLDISQNSVSYDEKKGDCSWTKSLLSLNMSSNILTDTIFRCLPPRIKVLDLHSNKIKSIPKQVVKLEALQELNVAFNSLTDLPGCGSFSSLSVLIIDHNSVSHPSADFFQSCQKMRSIKAGDNPFQCTCELGEFVKNIDQVSSEVLEGWPDSYKCDYPESYRGTLLKDFHMSELSCNITLLIVTIVATMLVLAVTVTSLCSYLDLPWYLRMVCQWTQTRRRARNIPLEELQRNLQFHAFISYSGHDSFWVKNELLPNLEKEGMQICLHERNFVPGKSIVENIITCIEKSYKSIFVLSPNFVQSEWCHYELYFAHHNLFHEGSNSLILILLEPIPQYSIPSSYHKLKSLMARRTYLEWPKEKSKRGLFWANLRAAINIKLTEQAKK | binds |

From publication PMC5059885
